Record: PubChem BioAssay AID504791 (Drosophila RNAi Screening Center, 2011)

Screen: 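Genes whose knock-down strengthens or weakens small-RNA reporter silencing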 (primary screen)
Cell system: Drosophila S2-derived reporter cells
Reagent: long dsRNA against Drosophila genes, about 150-250 ng dsRNA per well (siRNA assay); about 80-120 ng (miRNA assay)
Time to read-out: about 5 days (siRNA assay); about 4 days (miRNA assay)
Treatment: copper sulfate induction of reporters: 25 µM (siRNA assay); 200 mM stated (miRNA assay), 1-2 days before reading
Detection: 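Dual luciferase assay: Renilla to firefly signal ratio in each well, scaled to the mean ratio of its plate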
Call rule: 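a well was a first-pass pick when its plate-scaled ratio rose above 1.5 (siRNA assay) or 1.6 (miRNA assay), or dropped below 0.6; a gene counted only if two separate dsRNAs agreed on retest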
The screen tested about 23,000 reagents; shown is an unselected part of those with a known target gene and a result. Over the whole deposit, 199 (0.86%) got an active call. 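Plate-scaled ratios behind the calls are not deposited; printed light signals are raw; many rows marked increased or decreased are still called inactive.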 Entries without a mark were called inactive. A plus sign joins genes that one reagent is predicted to hit. Not given: the direction of the score.

gene,dsRNA,miRNA reporter change,"stable assay Renilla, run 1 (luminescence)","stable assay firefly, run 1 (luminescence)"
CG18281,DRSC11742,,6892,3.23e5
Edg84A,DRSC12594,,7727,4.68e5
CG13239,DRSC11694,,7949,4.37e5
CG3224,DRSC18295,,5975,3.28e5
JMJD6,DRSC15787,,9236,4.24e5
Septin2,DRSC16855,,10420,4.28e5
Ir85a,DRSC14382,,7578,3.89e5
Or65c,DRSC21312,,9871,6.09e5
CG10283,DRSC02034,,7642,1.02e6
CG3638,DRSC18533,,6422,3.49e5
tho2,DRSC00646,,10906,4.23e5
TwdlO,DRSC16043,,5994,5.44e5
NijB,DRSC09850,,3635,4.47e5
Alg2,DRSC08298,,9030,5.42e5
CG3868,DRSC10380,,9741,3.52e5
RpLP2,DRSC07539,,7114,3.22e5
RpLP2,DRSC28510,reporter ratio lowered past the hit cutoff,,
alph,DRSC15398,,9119,5.41e5
ubl,DRSC04998,,7706,4.74e5
Snr1,DRSC12369,,8127,6.02e5
zld,DRSC19486,,5075,4.68e5
zld,DRSC21721,,8231,5.03e5
zld,DRSC23098,,4643,3.16e5
Fancl,DRSC14550,,7855,6.96e5
Sas10,DRSC18355,,5203,4.43e5
Alp8,DRSC04353,,5906,5.24e5
wrm1,DRSC11007,,6816,3.57e5
m,DRSC20181,,5856,5.30e5
dy,DRSC20325,,5503,5.19e5
CG42650,DRSC12462,,5146,3.00e5
Lint-1,DRSC19822,,7058,5.59e5
Atx-1,DRSC18365,,5844,3.59e5
bowl,DRSC00805,,43032,1.40e5
CG7685,DRSC16285,,7299,3.74e5
CG7685,DRSC27560,reporter ratio lowered past the hit cutoff,,
Odc2,DRSC07483,,6055,4.16e5
CG3609,DRSC00620,,7850,3.63e5
CG6154,DRSC15977,,6635,3.28e5
CAH1 + Adat1,DRSC02009,,8769,1.75e6
CG33476,DRSC22888,,4459,4.37e5
CG30008,DRSC21576,,9759,5.41e5
Dtd,DRSC15362,,5134,4.29e5
CG3526,DRSC17240,,7510,2.82e5
CG3526,DRSC18636,,6491,3.16e5
Jasper,DRSC16352,reporter ratio raised past the hit cutoff,8667,4.06e5
Takl1,DRSC13443,,4475,4.21e5
CG5267,DRSC06928,,6464,2.88e5
lili,DRSC14143,,8071,2.96e5
Paip1,DRSC07302,,7204,2.37e5
CG12814,DRSC14552,,7442,4.23e5
CG12814,DRSC14553,,6275,4.70e5
Atg4a,DRSC00656,,91108,2.64e5
CG9394,DRSC04550,,7222,5.44e5
CG10418,DRSC09720,,6808,5.03e5
CG31663,DRSC00078,,5151,3.93e5
CG31663,DRSC00389,,13679,8.09e5
CG31663,DRSC00390,,4027,4.36e5
CG31663,DRSC00393,,7930,5.02e5
aay,DRSC11320,,7539,4.39e5
ttm2,DRSC08268,,6063,3.44e5
CG9897 + asRNA:CR42742,DRSC04595,,6990,3.87e5
Agpat4,DRSC10446,,8125,4.57e5
galla-1,DRSC05987,,5751,2.93e5
CG8774,DRSC16445,,7652,5.08e5
CG31855,DRSC02968,,9276,5.18e5
CG17127,DRSC02581,,7288,3.38e5
DZIP1,DRSC14620,,8795,4.61e5
CG15167,DRSC02468,,6620,4.48e5
CG10431,DRSC02055,,6459,3.52e5
CG8204,DRSC07106,,7196,3.26e5
Cpr78E,DRSC11807,,7979,4.09e5
CG18139 (retired record) + Hmx,DRSC15307,,6708,4.18e5
l(3)80Fg,DRSC21645,,9306,4.50e5
l(3)80Fg,DRSC22171,,9684,5.06e5
CLS,DRSC15642,,6750,3.88e5
Adck1,DRSC04394,,28662,1.14e6
CG14562,DRSC11723,,7346,4.21e5
CG33752,DRSC05351,,6335,3.40e5
e,DRSC16936,,10132,3.47e5
robls54B,DRSC05660,,6591,3.61e5
aux,DRSC12161,,7682,2.72e5
TwdlG,DRSC12229,,7008,3.39e5
CG34265,DRSC08030,,5855,5.51e5

10 successive reagents from above:
gene,dsRNA,miRNA reporter change,"stable assay Renilla, run 1 (luminescence)","stable assay firefly, run 1 (luminescence)"
CG9394,DRSC04550,,7222,5.44e5
CG10418,DRSC09720,,6808,5.03e5
CG31663,DRSC00078,,5151,3.93e5
CG31663,DRSC00389,,13679,8.09e5
CG31663,DRSC00390,,4027,4.36e5
CG31663,DRSC00393,,7930,5.02e5
aay,DRSC11320,,7539,4.39e5
ttm2,DRSC08268,,6063,3.44e5
CG9897 + asRNA:CR42742,DRSC04595,,6990,3.87e5
Agpat4,DRSC10446,,8125,4.57e5
